Reference: article doi:10.1101/2022.09.21.508831

How the values were obtained:
[1] = target: native PfRAP070 (Plasmodium falciparum 3D7 (endogenous in merozoites)) (UniProt Q8IAY8); test: native gel or EMSA
[2] = target: native PfRAP291 (Plasmodium falciparum 3D7 (endogenous in merozoites)) (UniProt Q8IJA7); test: native gel or EMSA

B1: RhopH3 (endogenous, merozoite) (protein, UniProt Q8I395 25-897)
chain: KDVFAGFVTKKLKTLLDCNFALYYNFKGNGPDAGSFLDFVDEPEQFYWFVEHFLSVKFRVPKHLKDKNIHNFTPCLNRSWVSEFLKEYEEPFVNPVMKFLDKEQRLFFTYNFGDVEPQGKYTYFPVKEFHKYCILPPLIKTNIKDGESGEFLKYQLNKEEYKVFLSSVGSQMTAIKNLYSTVEDEQRKQLLKVIIENESTNDISVQCPTYNIKLHYTKECANSNNILKCIDEFLRKTCEKKTESKHPSADLCEHLQFLFESLKNPYLDNFKKFMTNSDFTLIKPQSVWNVPIFDIYKPKNYLDSVQNLDTECFKKLNSKNLIFLSFHDDIPNNPYYNVELQEIVKLSTYTYSIFDKLYNFFFVFKKSGAPISPVSVKELSHNITDFSFKEDNSEIQCQNVRKSLDLEVDVETMKGIAAEKLCKIIEKFILTKDDASKPEKSDIHRGFRILCILISTHVEAYNIVRQLLNMESMISLTRYTSLYIHKFFKSVTLLKGNFLYKNNKAIRYSRACSKASLHVPSVLYRRNIYIPETFLSLYLGLSNLVSSNPSSPFFEYAIIEFLVTYYNKGSEKFVLYFISIISVLYINEYYYEQLSCFYPKEFELIKSRMIHPNIVDRILKGIDNLMKSTRYDKMRTMYLDFESSDIFSREKVFTALYNFDSFIKTNEQLKKKNLEEISEIPVQLETSNDGIGYRKQDVLYETDKPQTMDEASYEETVDEDAHHVNEKQHSAHFLDAIAEKDILEEKTKDQDLEIELYKYMGPLKEQSKSTSAASTSDEISGSEGPSTESTSTGNQGEDKTTDNTYKEMEELEEAEGTSNLKKGLEFYKSSLKLDQLDKEKPKKKKSKRKKKRDSSSDRILLEESKTFTSENEL
Question: B1 was tested. Which binding [1] did it give?
Answer: The binding was “binds”.

Question: And the binding [2]?
Answer: Its binding is “binds”.

No constants are given. Whether binding was seen depends on the method and setting. Binding calls can cover weak binding; strength is not graded here.
